{"sequences": {"note": "Amino acid sequences for entries named in this document (tags omitted). A change or cut given only in a name is not applied to a line headed by its entry.", "UniProt Q9P2D1": "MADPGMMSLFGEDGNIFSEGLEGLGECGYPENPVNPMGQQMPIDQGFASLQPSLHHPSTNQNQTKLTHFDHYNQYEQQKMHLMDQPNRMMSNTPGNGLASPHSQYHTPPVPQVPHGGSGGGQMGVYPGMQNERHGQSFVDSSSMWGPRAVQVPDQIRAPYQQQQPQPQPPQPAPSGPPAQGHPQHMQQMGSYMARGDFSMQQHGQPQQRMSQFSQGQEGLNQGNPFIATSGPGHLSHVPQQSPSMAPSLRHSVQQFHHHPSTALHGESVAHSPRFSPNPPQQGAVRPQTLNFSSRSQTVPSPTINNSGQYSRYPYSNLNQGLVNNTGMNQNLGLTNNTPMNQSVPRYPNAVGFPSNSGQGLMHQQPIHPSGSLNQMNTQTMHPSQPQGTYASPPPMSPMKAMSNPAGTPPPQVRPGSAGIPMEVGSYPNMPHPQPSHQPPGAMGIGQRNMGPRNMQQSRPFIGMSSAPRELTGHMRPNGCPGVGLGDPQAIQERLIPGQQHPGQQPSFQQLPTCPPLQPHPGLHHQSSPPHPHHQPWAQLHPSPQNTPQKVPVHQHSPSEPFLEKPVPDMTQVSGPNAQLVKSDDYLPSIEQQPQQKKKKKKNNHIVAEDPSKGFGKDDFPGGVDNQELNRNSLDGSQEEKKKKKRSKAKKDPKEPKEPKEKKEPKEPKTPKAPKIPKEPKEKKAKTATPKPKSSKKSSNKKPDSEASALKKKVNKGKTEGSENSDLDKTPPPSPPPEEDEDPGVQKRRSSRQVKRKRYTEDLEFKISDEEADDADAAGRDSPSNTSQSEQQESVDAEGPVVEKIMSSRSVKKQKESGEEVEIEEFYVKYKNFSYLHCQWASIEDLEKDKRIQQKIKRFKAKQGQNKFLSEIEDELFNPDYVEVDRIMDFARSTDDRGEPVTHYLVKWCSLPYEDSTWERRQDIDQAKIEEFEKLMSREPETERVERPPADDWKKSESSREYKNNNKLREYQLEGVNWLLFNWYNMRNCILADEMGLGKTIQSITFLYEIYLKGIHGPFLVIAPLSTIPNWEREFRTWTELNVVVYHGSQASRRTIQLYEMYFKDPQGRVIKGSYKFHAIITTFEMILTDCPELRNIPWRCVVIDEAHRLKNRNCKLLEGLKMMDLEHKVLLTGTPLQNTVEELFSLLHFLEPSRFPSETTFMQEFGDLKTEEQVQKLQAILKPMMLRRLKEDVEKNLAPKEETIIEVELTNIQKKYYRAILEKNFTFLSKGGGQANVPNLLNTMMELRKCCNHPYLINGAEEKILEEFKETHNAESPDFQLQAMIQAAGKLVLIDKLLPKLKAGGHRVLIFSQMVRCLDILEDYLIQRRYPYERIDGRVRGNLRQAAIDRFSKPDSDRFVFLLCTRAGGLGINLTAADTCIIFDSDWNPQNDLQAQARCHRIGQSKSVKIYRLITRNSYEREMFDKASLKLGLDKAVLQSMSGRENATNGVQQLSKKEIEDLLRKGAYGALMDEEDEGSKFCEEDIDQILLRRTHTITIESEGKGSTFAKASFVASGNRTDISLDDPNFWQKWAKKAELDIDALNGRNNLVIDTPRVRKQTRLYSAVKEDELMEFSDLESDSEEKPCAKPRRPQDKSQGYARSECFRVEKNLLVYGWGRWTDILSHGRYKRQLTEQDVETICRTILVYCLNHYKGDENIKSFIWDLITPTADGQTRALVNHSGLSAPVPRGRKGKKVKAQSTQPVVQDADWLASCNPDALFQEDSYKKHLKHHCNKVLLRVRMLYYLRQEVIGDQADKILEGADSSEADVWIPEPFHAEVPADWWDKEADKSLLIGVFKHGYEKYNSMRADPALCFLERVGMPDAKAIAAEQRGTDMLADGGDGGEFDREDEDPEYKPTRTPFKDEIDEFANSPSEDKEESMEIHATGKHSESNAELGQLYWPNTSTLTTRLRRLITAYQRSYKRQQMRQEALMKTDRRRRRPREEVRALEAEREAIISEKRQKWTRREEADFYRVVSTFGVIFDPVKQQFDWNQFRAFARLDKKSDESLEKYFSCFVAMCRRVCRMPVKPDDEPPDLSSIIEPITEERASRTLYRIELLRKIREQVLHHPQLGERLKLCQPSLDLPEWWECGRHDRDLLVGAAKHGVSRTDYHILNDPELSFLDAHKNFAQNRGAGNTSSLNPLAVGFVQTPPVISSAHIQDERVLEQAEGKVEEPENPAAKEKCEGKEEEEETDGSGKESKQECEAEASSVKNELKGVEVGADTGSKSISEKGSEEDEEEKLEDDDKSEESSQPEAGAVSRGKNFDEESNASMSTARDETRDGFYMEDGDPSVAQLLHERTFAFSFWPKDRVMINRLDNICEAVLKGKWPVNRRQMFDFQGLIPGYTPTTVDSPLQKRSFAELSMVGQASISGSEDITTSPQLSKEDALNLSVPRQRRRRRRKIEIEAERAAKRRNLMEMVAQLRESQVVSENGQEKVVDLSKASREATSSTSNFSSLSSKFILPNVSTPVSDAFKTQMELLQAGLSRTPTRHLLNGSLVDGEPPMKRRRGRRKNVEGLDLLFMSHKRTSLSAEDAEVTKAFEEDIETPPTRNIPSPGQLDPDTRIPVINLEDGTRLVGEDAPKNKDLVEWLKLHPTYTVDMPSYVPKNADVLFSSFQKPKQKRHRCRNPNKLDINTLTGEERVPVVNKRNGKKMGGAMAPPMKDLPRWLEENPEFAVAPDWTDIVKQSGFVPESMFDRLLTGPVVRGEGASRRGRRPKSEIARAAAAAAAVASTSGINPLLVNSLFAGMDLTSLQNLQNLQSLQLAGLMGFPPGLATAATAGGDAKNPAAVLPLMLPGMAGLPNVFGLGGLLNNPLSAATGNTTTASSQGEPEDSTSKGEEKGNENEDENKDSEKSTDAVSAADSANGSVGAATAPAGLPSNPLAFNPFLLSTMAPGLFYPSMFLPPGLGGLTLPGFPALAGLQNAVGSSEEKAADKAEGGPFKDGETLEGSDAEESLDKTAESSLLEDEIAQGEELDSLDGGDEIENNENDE"}, "source": "paper PMC8548210", "target": "CHD7 full-length (UniProt Q9P2D1)", "assay": "EMSA", "settings": "Kd between 7.7 and 13.1 nM, value only in figure; 20 mM Hepes pH 7.9, 10% glycerol, 150 mM KCl, 2.5 mM MgCl2, 1 mM DTT, 0.1 mg/ml BSA, RNasin Plus; 1 nM RNA; 30 min at RT; 0.7% agarose in 0.5x TBE; recombinant protein; residues 1-2997; protein details: FLAG and His dual tag (Ni-NTA then M2); label: Cy5-UTP (body); probe letters rebuilt from the primers and the genome; part of a longer …", "note": "Construct, isoform or probe ends are uncertain for at least one entry."}
{"sequence": "CUUCAACUCACACCUGACCUAAAACCUAAAUGCCUUAUUUUCUUCUGCAAUGCCCCUUGACCCCAAUACAAACUCAAGAGUAGUUCCAAAUAGCCAGAAAAUGGCACUUUCAAUUUUUCCAUCCUGCAAGAUCUAAAUAAUUCUUGUUGUAAAAUAGGCAAAUGGUCUGAGGUGCAUGACAUCCAGGCAUUCUUUUACACAUUGGUCCCUUCCUAGUCUCUGUGCCCAAUGCAACUCAUCCCAAAUCCUCCUUCUUUCCCUCCCGCCUGUCCCCUCAGUCCCAACCCCAAGCAUCGCUGAGUCUUUCUAAUCUUCCUUUUCUACGGACCCAUCUGACCUCUCCCCUCCUCGCCAGGCCGAGCUAGGUCCCAAUUCUUCCUCAGCCUCCGCUCCUCCACCCUAUAAUCCUUUUAUCACCUCUCCUCCUCUCACCCAGUCCGGCUUACAGUUUCAUUCCGUGACUAGCCCUCCCCGACCUGCCCAGCAAUUUCCUCUUAAAAAGGUGGCUGAAACUAAAGGCAUAGUCAAGGUUAAUGCUCCUUUAUCUUUAUCAGAACUCUCCCAAAUCAGUGAGCAUUUAGGCUCUUUCAUCAAAUAUGAAAAACCCAGCCCAGUUCAUGGCUCAUUCAGCAGCAACCCUGAGACGCUUUACAGUCUUAGACCCUAAAAGAUUAAAAGGCCAUCUUAUUCUCAAUAUACAUUUUAUUACCCAUCCUGCUCCC [HERVH RNA segment S3]", "values": [{"measurement": "binding result", "value": "binds"}]}
